Measured values as given in PMC9124974.
No constants are given. Whether binding was seen depends on the method and setting. Binding seen in cells or lysates may run through a third protein. Some entries that bind do so weakly or less than the wild type.

Sequences of proteins named here, by UniProt entry; tags and fusion partners are left off. A change or cut given only in a name is not applied to a line headed by its entry.
UniProt Q9Y6N7: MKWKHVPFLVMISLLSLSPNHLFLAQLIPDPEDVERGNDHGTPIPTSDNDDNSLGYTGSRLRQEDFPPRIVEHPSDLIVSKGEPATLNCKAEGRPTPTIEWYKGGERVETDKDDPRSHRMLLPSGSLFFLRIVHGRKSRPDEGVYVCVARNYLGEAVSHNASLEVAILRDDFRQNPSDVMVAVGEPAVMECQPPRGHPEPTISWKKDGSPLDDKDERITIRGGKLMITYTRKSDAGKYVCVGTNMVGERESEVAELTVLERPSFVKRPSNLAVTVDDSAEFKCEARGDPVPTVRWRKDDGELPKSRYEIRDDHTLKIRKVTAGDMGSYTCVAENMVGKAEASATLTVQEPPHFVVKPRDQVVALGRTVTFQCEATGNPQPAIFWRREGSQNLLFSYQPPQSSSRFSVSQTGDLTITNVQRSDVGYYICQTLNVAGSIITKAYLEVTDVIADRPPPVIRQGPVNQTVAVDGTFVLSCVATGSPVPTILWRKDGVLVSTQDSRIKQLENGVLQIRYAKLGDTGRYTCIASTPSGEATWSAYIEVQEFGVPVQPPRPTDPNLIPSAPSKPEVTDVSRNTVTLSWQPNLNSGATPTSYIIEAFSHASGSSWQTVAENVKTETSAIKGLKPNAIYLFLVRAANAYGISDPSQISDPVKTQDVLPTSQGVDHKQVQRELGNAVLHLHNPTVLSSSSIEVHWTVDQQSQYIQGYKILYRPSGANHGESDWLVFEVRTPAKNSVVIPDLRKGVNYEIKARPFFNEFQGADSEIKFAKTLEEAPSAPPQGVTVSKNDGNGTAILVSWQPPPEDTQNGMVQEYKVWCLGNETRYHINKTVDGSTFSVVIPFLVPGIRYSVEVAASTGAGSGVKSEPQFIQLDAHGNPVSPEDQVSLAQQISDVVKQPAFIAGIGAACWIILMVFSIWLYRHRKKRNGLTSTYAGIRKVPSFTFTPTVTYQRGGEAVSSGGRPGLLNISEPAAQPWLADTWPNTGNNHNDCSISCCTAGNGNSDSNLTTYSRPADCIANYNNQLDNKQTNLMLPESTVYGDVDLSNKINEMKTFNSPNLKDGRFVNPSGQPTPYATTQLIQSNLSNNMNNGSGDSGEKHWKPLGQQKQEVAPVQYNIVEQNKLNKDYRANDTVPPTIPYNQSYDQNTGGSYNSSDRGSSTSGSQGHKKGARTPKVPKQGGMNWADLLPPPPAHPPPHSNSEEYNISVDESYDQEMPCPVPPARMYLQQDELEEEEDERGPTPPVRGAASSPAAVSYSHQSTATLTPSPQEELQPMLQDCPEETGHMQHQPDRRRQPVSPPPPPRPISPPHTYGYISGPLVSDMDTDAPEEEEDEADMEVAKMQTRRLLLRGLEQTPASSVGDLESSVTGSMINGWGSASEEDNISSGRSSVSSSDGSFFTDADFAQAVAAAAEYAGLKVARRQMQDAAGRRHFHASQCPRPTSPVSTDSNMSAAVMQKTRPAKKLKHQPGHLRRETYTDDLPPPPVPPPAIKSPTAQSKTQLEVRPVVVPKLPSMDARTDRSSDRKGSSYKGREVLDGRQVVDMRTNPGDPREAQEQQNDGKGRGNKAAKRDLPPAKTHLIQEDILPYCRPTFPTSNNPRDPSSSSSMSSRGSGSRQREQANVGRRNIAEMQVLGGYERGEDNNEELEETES

Target: T1, SLIT2 (UniProt O94813)
T1 sequence: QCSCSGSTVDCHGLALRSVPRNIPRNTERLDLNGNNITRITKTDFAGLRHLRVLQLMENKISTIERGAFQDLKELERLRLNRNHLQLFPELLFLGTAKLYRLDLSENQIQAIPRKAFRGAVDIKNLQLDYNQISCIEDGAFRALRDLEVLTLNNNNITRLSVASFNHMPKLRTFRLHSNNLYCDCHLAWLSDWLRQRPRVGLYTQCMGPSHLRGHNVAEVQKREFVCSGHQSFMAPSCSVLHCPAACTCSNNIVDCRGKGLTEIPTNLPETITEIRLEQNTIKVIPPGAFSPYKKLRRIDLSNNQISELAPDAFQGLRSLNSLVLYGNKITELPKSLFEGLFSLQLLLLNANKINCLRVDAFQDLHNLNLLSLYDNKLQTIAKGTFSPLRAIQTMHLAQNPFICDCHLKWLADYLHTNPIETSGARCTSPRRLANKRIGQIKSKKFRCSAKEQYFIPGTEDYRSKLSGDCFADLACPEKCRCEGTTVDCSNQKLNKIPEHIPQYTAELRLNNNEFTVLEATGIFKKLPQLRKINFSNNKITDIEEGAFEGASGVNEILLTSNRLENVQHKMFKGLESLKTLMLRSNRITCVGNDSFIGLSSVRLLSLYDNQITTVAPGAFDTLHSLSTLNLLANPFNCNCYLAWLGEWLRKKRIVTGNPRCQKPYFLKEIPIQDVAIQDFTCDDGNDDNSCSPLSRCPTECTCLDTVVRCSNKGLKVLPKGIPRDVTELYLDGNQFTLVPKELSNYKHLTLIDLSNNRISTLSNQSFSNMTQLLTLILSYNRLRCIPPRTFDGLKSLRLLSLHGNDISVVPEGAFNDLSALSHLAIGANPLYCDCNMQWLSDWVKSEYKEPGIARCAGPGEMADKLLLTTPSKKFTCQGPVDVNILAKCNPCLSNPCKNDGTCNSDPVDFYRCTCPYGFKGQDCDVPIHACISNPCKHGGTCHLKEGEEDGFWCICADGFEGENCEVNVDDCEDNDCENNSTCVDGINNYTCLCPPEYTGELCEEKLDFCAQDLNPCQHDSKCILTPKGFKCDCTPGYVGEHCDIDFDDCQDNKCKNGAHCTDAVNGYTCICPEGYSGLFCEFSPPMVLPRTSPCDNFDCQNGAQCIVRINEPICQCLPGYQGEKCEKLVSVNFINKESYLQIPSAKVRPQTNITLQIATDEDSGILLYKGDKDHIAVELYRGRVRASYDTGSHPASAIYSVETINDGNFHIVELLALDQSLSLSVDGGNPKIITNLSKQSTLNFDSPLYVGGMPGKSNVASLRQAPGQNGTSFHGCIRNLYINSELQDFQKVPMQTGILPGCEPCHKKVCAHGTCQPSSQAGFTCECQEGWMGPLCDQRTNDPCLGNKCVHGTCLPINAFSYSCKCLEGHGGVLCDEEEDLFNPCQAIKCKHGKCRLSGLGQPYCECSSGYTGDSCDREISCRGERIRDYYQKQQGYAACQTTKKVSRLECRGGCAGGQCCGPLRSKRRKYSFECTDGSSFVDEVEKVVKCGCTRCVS
Assay: co-IP; immunoprecipitation with anti-SLIT2 antibody or control IgG from cells overexpressing ROBO1^WT or ROBO1^E280*; ROBO1 detected in the immunoprecipitates

binding | Substance
no binding | ROBO1 p.E280* (c.838G>T) truncated protein (from UniProt Q9Y6N7 26-279) (domain or fragment)
binds | ROBO1 wild type (from UniProt Q9Y6N7 26-1651) (receptor)
